Assay results published in publication PMC10352136.
These are yes or no findings as the source states them, for the method shown. Blank lines part the entries; values can stand above or below the binder they belong to.

By UniProt entry, the sequences of proteins in these tests, tags left out.
UniProt Q13596: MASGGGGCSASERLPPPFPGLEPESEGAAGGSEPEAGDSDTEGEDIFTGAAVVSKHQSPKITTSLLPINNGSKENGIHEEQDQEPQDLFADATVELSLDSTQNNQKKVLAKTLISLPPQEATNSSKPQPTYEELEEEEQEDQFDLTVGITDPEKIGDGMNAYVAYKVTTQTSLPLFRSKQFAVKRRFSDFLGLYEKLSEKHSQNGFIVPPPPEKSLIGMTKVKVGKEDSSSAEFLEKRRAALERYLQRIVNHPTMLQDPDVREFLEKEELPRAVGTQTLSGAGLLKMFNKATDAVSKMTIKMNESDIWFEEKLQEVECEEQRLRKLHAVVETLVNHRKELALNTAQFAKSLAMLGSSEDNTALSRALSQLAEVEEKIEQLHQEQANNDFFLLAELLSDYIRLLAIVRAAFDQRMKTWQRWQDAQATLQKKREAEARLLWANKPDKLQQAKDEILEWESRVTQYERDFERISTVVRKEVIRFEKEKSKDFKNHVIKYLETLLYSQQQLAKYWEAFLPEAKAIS

Experiments:
[1] = biological target: SNX1^FL (full-length sorting nexin 1) (human) (UniProt Q13596); assay: condition: 242 µM peptide titrated into 19.6 µM SNX1; ITC; 25 °C, 300 mM NaCl, 0.5 mM TCEP, 25 mM HEPES pH 7.5; CI-MPR in the syringe (SNX1^PX in the syringe for its test with the peptide); one-site model; both purified
[2] = biological target: SNX1^BAR–SNX5^BAR heterodimer (human) (UniProt Q13596+Q9Y5X3); assay: condition: 805 µM peptide titrated into 21 µM complex; ITC; 25 °C, 300 mM NaCl, 0.5 mM TCEP, 25 mM HEPES pH 7.5; CI-MPR in the syringe (SNX1^PX in the syringe for its test with the peptide); one-site model; both purified
[3] = biological target: T1, SNX5^FL (full-length sorting nexin 5) (human), Q9Y5X3; assay: SEC-MALS; 100 μl of protein at 1 mg ml^−1 in 150 mM NaCl, 0.5 mM TCEP, 10 mM HEPES pH 7.5; Superdex 200 Increase 10/300 GL; both purified; conditions: remark: other sources report otherwise
T1 chain: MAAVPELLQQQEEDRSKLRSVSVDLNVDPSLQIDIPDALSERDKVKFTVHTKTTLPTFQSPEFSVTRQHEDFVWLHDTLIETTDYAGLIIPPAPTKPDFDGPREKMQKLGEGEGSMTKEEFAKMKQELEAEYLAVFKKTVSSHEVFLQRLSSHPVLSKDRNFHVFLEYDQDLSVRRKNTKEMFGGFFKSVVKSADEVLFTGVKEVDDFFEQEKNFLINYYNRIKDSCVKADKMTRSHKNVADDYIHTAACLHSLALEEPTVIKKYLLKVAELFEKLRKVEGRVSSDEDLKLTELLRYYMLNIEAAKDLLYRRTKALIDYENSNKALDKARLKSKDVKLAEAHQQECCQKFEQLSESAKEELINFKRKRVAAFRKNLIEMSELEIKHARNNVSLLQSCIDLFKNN

binding [1]: no binding
binding [2]: no binding
Binder: SNVSYKYSKVNKEEETDENETEWLMEEIQ (peptide, UniProt P11717 2347-2375)

binding [3]: no binding (tested: 1 mg ml^−1)
B1: SNX5^FL (full-length sorting nexin 5), Q9Y5X3 1-404 (protein)
chain: T1 chain
